In the supplement of paper PMC3334620:
The full ranking holds about 33,000 sequences; the median of “E-score (-0.5 to 0.5)” is about -0.0059, and the highest 2% start at about 0.26. This is one part of the list.

Biological target: T1, Cin5 (UniProt P40917)
T1 sequence: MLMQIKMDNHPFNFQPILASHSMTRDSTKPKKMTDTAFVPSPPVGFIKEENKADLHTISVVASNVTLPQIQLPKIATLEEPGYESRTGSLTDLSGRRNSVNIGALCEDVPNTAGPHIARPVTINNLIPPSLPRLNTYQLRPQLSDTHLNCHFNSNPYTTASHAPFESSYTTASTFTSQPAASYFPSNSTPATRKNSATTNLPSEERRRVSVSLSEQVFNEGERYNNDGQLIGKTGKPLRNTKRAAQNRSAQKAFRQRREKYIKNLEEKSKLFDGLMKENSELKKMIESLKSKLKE
Assay: PBM E-score (8-mer binding enrichment) (E-score (-0.5 to 0.5)); higher = stronger / more preferred TF binding
Details: protein concentration: 100 nM; construct: GST-full length
How it was run: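 Yeast transcription factors carrying a GST tag, as full-length proteins or DNA-binding domains, were produced by PURExpress in vitro transcription/translation. About 100-200 nM protein was applied to universal all-10-mer Agilent arrays, double-stranded by primer extension on fresh or once-stripped slides. Bound protein was detected with fluorescent anti-GST, and scans were normalised with masliner. The Universal PBM Analysis Suite gave each ungapped eight-base word, pooled with its reverse complement, an E-score, a modified Wilcoxon-Mann-Whitney statistic.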

| Sequence | PBM E-score |
| --- | --- |
| CCTGGCGA | -0.137 |
| GCGAGCGC | -0.237 |
| GCACTCAC | -0.0797 |
| GGCTTAAA | -0.00936 |
| CATTGGGC | -0.262 |
| ATCCTTCA | 0.0404 |
| GACTTCAC | -0.00382 |
| CGTCCACC | -0.212 |
| AAAACAAT | 0.207 |
| CTCTCAAA | 0.0568 |
| ATAACAGC | 0.0831 |
| CCACGTTC | -0.134 |
| AAGCTGGT | 0.00012 |
| TGAAGCCA | -0.168 |
| ATTGCTTG | 0.177 |
| GGTAAGGA | -0.153 |
| AGACTCCA | -0.152 |
| AAGTACCA | 0.136 |
| TATAGGCA | -0.0979 |
| TAGTTGAA | 0.186 |
| GTCCAAGA | -0.308 |
| TCACGCCA | 0.0043 |
| AATAATAA | 0.305 |
| GCGTTTTA | -0.0549 |
| CACGATAC | -0.121 |

Reprinted at random: 7 entries already listed, in no set order.

| Sequence | PBM E-score |
| --- | --- |
| GACTTCAC | -0.00382 |
| CCACGTTC | -0.134 |
| CCTGGCGA | -0.137 |
| GTCCAAGA | -0.308 |
| TCACGCCA | 0.0043 |
| AAAACAAT | 0.207 |
| TAGTTGAA | 0.186 |

The results go on:

| Sequence | PBM E-score |
| --- | --- |
| AATTAAAT | 0.184 |
| CCATTTCC | 0.136 |
| CAGCCGAG | -0.0838 |
| GTTCGACA | 0.0859 |
| AGCTTTGG | -0.177 |
| AAACAGAT | 0.0983 |
| ACGTAATG | 0.334 |
| CTGTCTCA | 0.0285 |
| CCGGCTCC | -0.233 |
| AGGGCCAC | -0.194 |
| AGTGCGGA | 0.223 |
| CAATATCC | 0.116 |
| ATCCCTGA | -0.0356 |
| AGGGTCCC | -0.346 |
| CCGAAAAG | 0.0796 |
| GCGAAGCC | -0.247 |
| CTGTTTCA | 0.0212 |
| ATGGGAGA | -0.0587 |
| TAAACTTA | 0.0539 |
| AGGCGCGG | -0.192 |
| GGAGAACC | -0.168 |
| GTGCCAAC | -0.0934 |
| CAGAGCGC | -0.267 |
| AGATCCAT | -0.121 |
| AAAATCGT | 0.123 |

| Sequence | PBM E-score |
| --- | --- |
| GCCTAGGA | -0.236 |
| CAATTGAG | 0.183 |
| CTGCTTGC | -0.12 |
| ACACCCCG | -0.248 |
| ACAGCACA | 0.00212 |
| CGGCTTTA | -0.0829 |
| GCCCCGCA | -0.109 |
| ATCTGTAA | 0.023 |
| ACTTAGCT | -0.133 |
| ACCTGTCT | -0.0809 |
| AACTAACG | 0.072 |
| TACGGCCA | -0.0556 |
| GCGAGAAC | 0.0973 |
| GCATCCGA | -0.213 |
| AGTCGACC | -0.083 |
| ATGGGCAG | 0.039 |
| CCAAACGA | -0.0707 |
| CCCGAAGA | -0.127 |
| GGACTAAA | -0.0876 |
| CGATCGGC | 0.0129 |
| AATCAGAG | 0.112 |
| AAAGTCGC | 0.0786 |
| GTAACACA | 0.194 |
| CGGACTGA | -0.0989 |
| AACAGTAG | 0.101 |

Laid out differently: results already given.
Sequence | PBM E-score
GTGCCAAC | -0.0934
CAGAGCGC | -0.267

Following part

| Sequence | PBM E-score |
| --- | --- |
| CGCCCCTA | 0.00558 |
| CAAGAGAA | 0.203 |
| ACGACGTC | -0.0462 |
| CGTACTGA | 0.115 |
| ACGGAGCT | -0.274 |
| AAGCCCCA | -0.102 |
| ATTTTCTG | 0.0829 |
| ATAACTGC | 0.0345 |
| AGCAAGTC | 0.00168 |
| ATCTATCG | 0.0239 |
| GATTCTAA | -0.0896 |
| AAATCGGA | 0.00712 |
| GTCATTGA | 0.0602 |
| AAGTCCGG | -0.187 |
| ACCGCACA | 0.0171 |
| ACCTATTC | -0.0399 |
| AAAGGCTA | 0.0337 |
| GCGTCACA | 0.0289 |
| CCTCCAAA | -0.197 |
| ACGTCGGC | -0.0908 |
| AGTAAGAG | -0.01 |
| AACATAGG | -0.0463 |
| CACACCGC | -0.13 |
| TAAACTGA | 0.051 |
| ACAAGGGA | -0.186 |

| Sequence | PBM E-score |
| --- | --- |
| ACGCTCGA | -0.00995 |
| AGTTGTAG | 0.104 |
| GCTGCGCA | -0.141 |
| AGCTGACA | 0.0172 |
| AGCGGCCT | -0.276 |
| CCGTATTC | 0.0345 |
| GCTAAGTA | 0.046 |
| CCTTTGCA | -0.0748 |
| GGCTTTGA | -0.0566 |
| CGACCCTC | -0.298 |
| AAGGCGTG | -0.0734 |
| AACTAAGG | 0.0624 |
| GACGCCCA | -0.0707 |
| AGGCGAAC | -0.102 |
| CTAATAAA | 0.164 |
| GAGAAGCA | -0.0556 |
| AGGCCAAT | -0.00799 |
| CCGTTAGG | -0.155 |
| AGCTAACA | -0.0476 |
| ATCCCTAC | 0.0672 |
| GAGAGGGA | -0.288 |
| CAATAGAC | 0.0892 |
| ACATCCCA | -0.0872 |
| CGGGTCAA | -0.0269 |
| GTGTTGGA | -0.0393 |

| Sequence | PBM E-score |
| --- | --- |
| CACCTTAA | -0.0476 |
| TACGTAAA | 0.302 |
| CATCGTAC | 0.0675 |
| GTCGACAC | -0.0723 |
| AATTATGG | 0.156 |
| CCAGCCCC | -0.131 |
| TGGTCAAA | 0.0901 |
| TGTGAACA | 0.0488 |
| GTCAGCGA | -0.0481 |
| ACGGGACG | -0.0796 |
| AATCAGGG | -0.152 |
| GCACCCCA | 0.143 |
| ATGAATTG | 0.183 |
| ATATTCAG | 0.158 |
| ATGAGTCA | 0.0858 |
| CCCACCAG | -0.142 |
| CAAGTCCG | -0.109 |
| AAATATGT | 0.223 |
| AAAATACT | 0.16 |
| AGGTCTAA | -0.0492 |
| ACATGCCC | -0.178 |
| CCCGTAGA | -0.302 |
| ACCACGGT | -0.303 |
| ACAATCGC | 0.115 |
| TATAATAA | 0.241 |

| Sequence | PBM E-score |
| --- | --- |
| AGACCTTA | -0.0451 |
| AGATTACG | 0.419 |
| TTTCCAAA | -0.0319 |
| CCAATGGG | -0.286 |
| GTTGATGA | 0.154 |
| CATTCTCA | 0.21 |
| TATATAAA | 0.283 |
| ACCTCACC | 0.00165 |
| ACTCATGA | 0.171 |
| GATTTTGA | 0.115 |
| CACGGCCG | 0.0294 |
| AATTTATG | 0.192 |
| AGGACGAC | -0.127 |
| CATACGCA | -0.0419 |
| GAGAGTTA | -0.0296 |
| CGAAAATA | 0.0809 |
| ACTCGCGC | 0.112 |
| ATCTCTTC | 0.117 |
| AGATCAGC | 0.137 |
| CCATTACC | 0.00911 |
| AGGCAAGA | -0.112 |
| AAACTTAT | 0.233 |
